In PubChem BioAssay AID2551 (National Center for Advancing Translational Sciences (NCATS), 2010):
The whole screen tested about 310,000 compounds, of which about 17,000 (5.5%) were called active. Inconclusive results, whose numbers are uncertain, are shown with a selection of clear calls. The call rests on the fitted dose curve; in most records, active means well fitted inhibition curve with a large enough effect; inconclusive means small, poorly fitted or top-dose-only effect, or effect the other way; inactive means no such curve, though single readings can be large or run the other way. Potencies beside an inconclusive call are fits to weak or partial responses and may not hold up.

By UniProt entry, the sequences of proteins in these tests, tags left out. Where a name states a change or a piece, a line headed by the entry shows the natural chain unless it says otherwise.
UniProt P51450: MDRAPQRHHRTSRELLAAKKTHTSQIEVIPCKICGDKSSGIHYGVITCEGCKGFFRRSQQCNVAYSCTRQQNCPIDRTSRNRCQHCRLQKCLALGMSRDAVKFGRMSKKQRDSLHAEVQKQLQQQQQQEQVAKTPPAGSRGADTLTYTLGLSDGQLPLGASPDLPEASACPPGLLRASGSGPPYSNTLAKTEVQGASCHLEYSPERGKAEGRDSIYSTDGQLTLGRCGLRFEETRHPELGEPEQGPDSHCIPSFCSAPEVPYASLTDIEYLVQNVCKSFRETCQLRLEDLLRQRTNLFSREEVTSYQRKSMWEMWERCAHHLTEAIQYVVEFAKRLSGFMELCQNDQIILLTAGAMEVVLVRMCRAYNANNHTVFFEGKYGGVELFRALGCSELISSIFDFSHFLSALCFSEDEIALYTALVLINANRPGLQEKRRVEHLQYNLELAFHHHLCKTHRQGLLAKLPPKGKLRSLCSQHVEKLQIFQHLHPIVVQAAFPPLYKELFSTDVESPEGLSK

What follows are compounds tested against Nuclear receptor ROR-gamma (Mus musculus) (UniProt P51450) (assay: qHTS for inhibitors of ROR gamma transcriptional activity). Details: Drosophila S2 Gal4-RORgamma UAS-luciferase reporter, 20 h; series mostly up to 53.6 µM.
Procedure, shortened: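 A Gal4/UAS one-hybrid system in insect cells: metallothionein-promoter Gal4–ROR gamma fusion plus Photinus luciferase reporter. Copper sulfate 700 uM final, 20 hr ambient incubation, luminescent detection after 10 min with reagent.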
Further: nearly all actives have a fitted effect of over 60% in size.
Potency means the concentration at half of the fitted maximal effect.

Row | SMILES | Potency
1 | O=C(c1ccco1)N1CCN(CC(=O)N2c3ccccc3CCc3ccccc32)CC1 | inactive
2 | O=C(Nc1ccccc1F)C1CCCN(S(=O)(=O)c2cccc3cccnc23)C1 (stereo not given) | inconclusive: 15.8 µM [activator, partial curve]
3 | Cc1onc(-c2ccccc2)c1C(=O)OCC(=O)c1ccccc1 | inactive
4 | CCCc1cc(C(=O)N2CCN(c3ccc(C(F)(F)F)cn3)CC2)sc1C | inconclusive: 35.5 µM [activator, single point]
5 | O=C(Oc1cccc(/C=N/NC(=O)c2ccccn2)c1)c1ccc([N+](=O)[O-])cc1 | inconclusive: 20 µM [inhibitor, single point]
6 | CS(=O)(=O)Nc1cccc(C2=NN(S(=O)(=O)c3ccccc3)C(c3ccco3)C2)c1 (stereo not given) | inconclusive: 35.5 µM [activator, single point]
7 | c1ccc(-c2csc(NNC3=NCCCCC3)n2)cc1 | inconclusive: 11.2 µM [inhibitor, single point]
8 | O=C(Cc1ccc(-n2c(=S)[nH]c3ccccc3c2=O)cc1)N1CCN(c2ccccc2)CC1 | inconclusive: 31.6 µM [inhibitor, single point]
9 | CCOc1ccc(CCNC(=O)C(O)c2ccccc2)cc1 (stereo not given) | inconclusive: 3.55 µM [inhibitor, partial curve]
10 | COC(=O)C1=C(C)N(C)C(C)=C(C(=O)OC)C1c1ccc(Cl)cc1 | inactive
11 | O=C(c1ccco1)N1CCC[C@@]2(CCN(c3ccccn3)C2)C1 | inactive
12 | CC(C)c1nnc(NC(=O)c2cc3ccccc3o2)s1 | inconclusive: 10 µM [inhibitor, partial curve, poor fit]
13 | Cc1ccc(C)c(NC(=O)CSc2nc3c(oc4ccccc43)c(=O)n2-c2ccccc2)c1 | inconclusive: 3.55 µM [activator, full curve, poor fit]
14 | CCCc1[nH]n(-c2nc3ccccc3s2)c(=O)c1C=NCCCOC | inconclusive: 14.1 µM [inhibitor, single point]
15 | Cc1ccc(N=Cc2c(O)ccc3ccccc23)cc1F | active: 5.01 µM
16 | CC(=O)N(c1ccccc1C)C1CCCC1 | inactive
17 | O=C(CSCc1cnn(-c2ccccc2)c1-n1cccc1)NCc1cccs1 | inactive
18 | CC(C)Oc1ccc(CCN=C(N)N=C(N)N)cc1Cl | inconclusive: 22.4 µM [activator, single point]
19 | c1ccc(C(Cc2nc(-c3ccccn3)no2)c2ccccc2)cc1 | inconclusive: 11.2 µM [inhibitor, partial curve, poor fit]
20 | O=C(Nc1ccccc1F)Nc1cc(S(=O)(=O)N2CCOCC2)ccc1N1CCCC1 | inactive

Looked up one by one from the list above:
Row | SMILES | Potency
8 | O=C(Cc1ccc(-n2c(=S)[nH]c3ccccc3c2=O)cc1)N1CCN(c2ccccc2)CC1 | inconclusive: 31.6 µM [inhibitor, single point]
5 | O=C(Oc1cccc(/C=N/NC(=O)c2ccccn2)c1)c1ccc([N+](=O)[O-])cc1 | inconclusive: 20 µM [inhibitor, single point]
